{"source": "PubChem BioAssay AID2685", "about": "(National Center for Advancing Translational Sciences (NCATS), 2010)", "note": "The campaign covered roughly 320,000 compounds. About 2,100 (0.66%) were called active. Inconclusive results, whose numbers are uncertain, are shown with a selection of clear calls. Calls follow the shape of the dose curve; as a rule, active = well fitted inhibition curve with a large enough effect in the signal ratio, with a control signal flat (not every such curve was filed as active); inconclusive = small, poorly fitted or top-dose-only effect, or effect the other way, or a change in a side signal; inactive = flat fitted curve, though single readings scatter; the % refers to the signal ratio. Where the call is inconclusive, the potency comes from a doubtful curve fit. % is scaled to controls: 0 for no effect and ±100 for the full control effect; potency is read from the fitted curve at half-maximal effect.", "data": [{"experiment": "qHTS Assay for Lipid Storage Modulators in Drosophila S3 Cells", "details": "BODIPY lipid droplet fluorescence, 18-24 h, cells fed with added oleic acid; lipid storage change, negative = inhibition: at 46.1 µM (top of the series) unless noted", "summary_of_the_method": "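Drosophila S3 cells got compounds at several concentrations plus oleic acid (400 uM solution). Laser-scanning cytometry with 488 nm excitation read lipid droplets at 500-530 nm and cells at 575-640 nm. Percent activity was relative to 20 uM Triacsin C.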", "values": [{"compound": "O=C1c2cccc3cccc(c23)C(=O)N1CCCN1CCN(c2ccc(F)cc2)CC1", "Potency": "inconclusive: 6.51 µM [falling, single point]"}, {"compound": "O=C(NCCO)c1cccc(Cl)c1", "Potency": "active: 25.9 µM"}, {"compound": "Cc1cccc(OCc2nnc(SCC(=O)N3CCN(c4ccccc4)CC3)o2)c1C", "lipid storage change, negative = inhibition": "inconclusive: 9.23%"}, {"compound": "Cc1ccccc1C(=O)N1CCN(c2ccc([N+](=O)[O-])c(NCc3ccco3)c2)CC1", "lipid storage change, negative = inhibition": "inconclusive: 55.2%"}, {"compound": "O=C(O)CSc1nnc(C2CC2)n1-c1ccccc1", "Potency": "inconclusive: 0.82 µM [falling, full curve]"}, {"compound": "CCO/N=C1\\C(=O)N(c2ccccc2)c2ccccc21", "lipid storage change, negative = inhibition": "inconclusive: -16%"}, {"compound": "Nc1cc2c3c(cccc3c1)C(=O)N(CCN1CCCC1)C2=O", "Potency": "inconclusive: 20.6 µM [falling, single point]"}, {"compound": "COCCn1c(=O)[nH]c2cc(C(=O)N3CCN(c4ccccc4F)CC3)ccc2c1=O", "Potency": "active: 11.6 µM"}, {"compound": "Cc1nn(-c2ccc(C(=O)Nc3nnc(C4CC4)s3)cc2)c(C)c1Cl", "lipid storage change, negative = inhibition": "inconclusive: 45.1%"}, {"compound": "O=C(NNc1ccc(C(F)(F)F)cc1[N+](=O)[O-])c1ccc(NS(=O)(=O)c2ccc(F)cc2)cc1", "lipid storage change, negative = inhibition": "inconclusive: 7.81%"}, {"compound": "CCOC(=O)/C(=N\\Nc1cc(Cl)ccc1Cl)N1CC(C)OC(C)C1", "note": "(stereo unspecified)", "lipid storage change, negative = inhibition": "inconclusive: 20.2%"}, {"compound": "CC1CCC2(CC1)NC(=O)N(CC(=O)Nc1ccc3c(c1)OCCO3)C2=O", "note": "(stereo unspecified)", "lipid storage change, negative = inhibition": "inconclusive: 24.8%"}, {"compound": "Cc1cc(S(=O)(=O)N2CCN(c3ccccc3F)CC2)ccc1-n1cnnn1", "lipid storage change, negative = inhibition": "inconclusive: -19.5%"}, {"compound": "COc1ccc(OC)c(C(=O)c2coc3ccc(O)cc23)c1", "Potency": "inconclusive: 0.092 µM [activator, full curve, poor fit]"}, {"compound": "Cc1ccc(O)c(C(=O)c2cnc3c(c2)c(C)nn3-c2ccccc2)c1", "lipid storage change, negative = inhibition": "inconclusive: 12.1%"}, {"compound": "CCCOc1ccc2ccccc2c1/C=C1\\SC(=O)NC1=O", "lipid storage change, negative = inhibition": "inconclusive: -39.7%"}, {"compound": "CSc1cc(C)[nH]c(=O)n1", "Potency": "inconclusive: 29.1 µM [cytotoxic, single point]"}, {"compound": "COc1ccccc1CN1CC(C(=O)NCc2nc3ccccc3n2C)CCC1=O", "note": "(stereo unspecified)", "lipid storage change, negative = inhibition": "inconclusive: 15%"}, {"compound": "CCc1ccc(OCC(=O)Nc2cc(S(=O)(=O)CC)ccc2O)cc1", "Potency": "inconclusive: 0.0052 µM [falling, full curve, poor fit]"}, {"compound": "CC(NC(=O)[C@H](Cc1c[nH]c2ccccc12)NC(=O)[C@@H]1Cc2ccccc2CN1)c1ccccc1", "note": "(stereo partly specified)", "Potency": "inconclusive: 29.1 µM [activator, single point]"}, {"compound": "CCCCCCCC(=O)NC(Nc1ccc(S(N)(=O)=O)cc1)C(Cl)(Cl)Cl", "note": "(stereo unspecified)", "lipid storage change, negative = inhibition": "inconclusive: -14.9%"}, {"compound": "CSc1ccccc1OCc1cc(C(=O)NCC(C)(C)N2CCOCC2)no1", "lipid storage change, negative = inhibition": "inconclusive: -19%"}, {"compound": "O=C1NC(c2cccs2)Nc2sc3c(c21)CCCC3", "note": "(stereo unspecified)", "lipid storage change, negative = inhibition": "inconclusive: 26.8%"}, {"compound": "Cc1ccc(N2Cc3ccccc3OC(C)C2=O)cc1", "note": "(stereo unspecified)", "lipid storage change, negative = inhibition": "inconclusive: -8.57%"}, {"compound": "CC(C)c1ccc(N(C(=O)c2snc(C(N)=O)c2N)C(C(=O)NCC2CCCO2)c2ccc(N(C)C)cc2)cc1", "note": "(stereo unspecified)", "Potency": "inconclusive: 0.58 µM [activator, single point]"}, {"compound": "Cc1nn(Cc2c(F)c(F)c(F)c(F)c2F)c(C)c1NC(=O)c1ccc(COc2ccc(F)cc2)o1", "lipid storage change, negative = inhibition": "inconclusive: -12.6%"}, {"compound": "O=[N+]([O-])c1cc(F)c2cccnc2c1O", "Potency": "inconclusive: 29.1 µM [activator, single point]"}, {"compound": "Cc1cc(=O)oc2cc(OC(C)C(=O)Nc3ccc(C(N)=O)cc3)ccc12", "note": "(stereo unspecified)", "lipid storage change, negative = inhibition": "inconclusive: 12%"}, {"compound": "Cn1c(-n2c(CCCN3C(=O)c4ccccc4C3=O)nc3ccccc3c2=O)nc2ccccc21", "lipid storage change, negative = inhibition": "inconclusive: -4.15%"}, {"compound": "O=C(CN1CCN(c2ccccc2O)CC1)Nc1ccnn1C1CCCC1", "lipid storage change, negative = inhibition": "inconclusive: 23.4%"}, {"compound": "COc1ccc(NC(=O)CN(C)C(=O)CCCc2nc3ccccc3s2)cc1", "Potency": "inconclusive: 9.2 µM [activator, partial curve]"}, {"compound": "Cc1nn(C)cc1CNCc1ccc(OCC(O)CN(C)Cc2ccccc2)cc1", "note": "(stereo unspecified)", "lipid storage change, negative = inhibition": "inconclusive: -16.2%"}, {"compound": "C/C(=N\\N=c1/sc2ccccc2n1C)c1ccccn1", "lipid storage change, negative = inhibition": "inconclusive: 10.6%"}, {"compound": "COc1cc(CNc2ccccc2SC)ccc1O", "Potency": "inconclusive: 0.103 µM [falling, full curve, poor fit]"}, {"compound": "O=C(c1ccccc1F)N1CCc2ccccc21", "lipid storage change, negative = inhibition": "inconclusive: -12%"}, {"compound": "CCOc1ccc(NC(=O)CSc2nc3ccccc3nc2N2CCCC2)cc1", "lipid storage change, negative = inhibition": "inconclusive: -51.8%"}, {"compound": "CCOC(=O)C1(CC2CCCCO2)CCN(C(=O)Nc2cccc(SC)c2)CC1", "note": "(stereo unspecified)", "lipid storage change, negative = inhibition": "inconclusive: -18%"}, {"compound": "CC(C)NC(=O)COC(=O)c1cc(=O)[nH]c2ccccc12", "lipid storage change, negative = inhibition": "inconclusive: 1.13%"}, {"compound": "CC(C)(C)NC(=O)/C=C/c1cccs1", "lipid storage change, negative = inhibition": "inconclusive: -14.4%"}, {"compound": "COc1ccc(C(=O)NC(=S)Nc2nc(-c3ccc(OC)c(Br)c3)cs2)cc1Br", "Potency": "inconclusive: 11.6 µM [activator, partial curve]"}, {"compound": "O=C(/C=C/c1ccc(Br)o1)Nc1nccs1", "lipid storage change, negative = inhibition": "inconclusive: 40.4%"}, {"compound": "Cc1ccc(/C([O-])=C(/C(=S)NCc2ccccc2)[n+]2ccccc2)cc1[N+](=O)[O-]", "lipid storage change, negative = inhibition": "inconclusive: 18.9%"}, {"compound": "O=[N+]([O-])c1cc(Cl)c(O)c2ncccc12", "lipid storage change, negative = inhibition": "inconclusive: 9.48%"}, {"compound": "Cc1cc(C)n2nc(SCc3nnc(SCc4ccccc4)s3)nc2n1", "Potency": "inconclusive: 18.4 µM [falling, single point]"}, {"compound": "O=C(N[C@@H](Cc1c[nH]c2ccccc12)C(=O)O)c1ccccc1Cl", "Potency": "inconclusive: 29.1 µM [falling, single point]"}, {"compound": "CCN(CC)C(=O)c1ccccc1NS(=O)(=O)c1ccc(OC)c(C(=O)N2CCOCC2)c1", "lipid storage change, negative = inhibition": "inconclusive: 31.2%"}, {"compound": "CC1(C)CC2CC(C)(CN2S(=O)(=O)c2ccc(F)cc2F)C1", "note": "(stereo unspecified)", "Potency": "inconclusive: 6.51 µM [falling, single point]"}, {"compound": "N#CC(NC(=O)OCc1ccccc1)c1ccccc1", "note": "(stereo unspecified)", "lipid storage change, negative = inhibition": "inconclusive: 6.62%"}, {"compound": "CCOc1cc(C(=S)N2CCOCC2)ccc1OC(=O)c1cccc(C)c1", "Potency": "inconclusive: 23.1 µM [falling, single point]"}, {"compound": "COc1ccc(NC(=O)CSc2nnc(Cc3ccccc3)c(=O)n2N)cc1", "lipid storage change, negative = inhibition": "inconclusive: -10.4%"}, {"compound": "O=C1CC(NS(=O)(=O)c2cccnc2)CN1c1ccccc1", "note": "(stereo unspecified)", "lipid storage change, negative = inhibition": "inconclusive"}, {"compound": "CN(C)/C=N/c1c(C#N)cnn1-c1ccccc1", "lipid storage change, negative = inhibition": "inconclusive: 3.23% [at 9.22 µM]"}, {"compound": "COCCCNC(=O)CC(NS(=O)(=O)c1ccc(OC)cc1)c1ccc(OC)cc1", "note": "(stereo unspecified)", "lipid storage change, negative = inhibition": "inconclusive: 2.42%"}, {"compound": "O=C1CC(c2ccccc2)CC(O)=C1C=NCCCO", "note": "(stereo unspecified)", "lipid storage change, negative = inhibition": "inconclusive: -4.43%"}, {"compound": "O=C(NC(=S)Nc1ccc(N2CCCC2)cc1)c1ccccc1[N+](=O)[O-]", "Potency": "inconclusive: 0.103 µM [activator, full curve, poor fit]"}, {"compound": "O=C(O)CSc1nnc(CNc2ccc(Cl)cc2)n1Cc1ccccc1", "Potency": "inconclusive: 1.84 µM [falling, full curve, poor fit]"}, {"compound": "CCn1cc(C(=O)OCc2ccccc2)c(=O)c2ccc(C)nc21", "Potency": "inconclusive: 0.0046 µM [activator, full curve, poor fit]"}, {"compound": "COc1nc(N/N=C/c2ccc(-c3ccccc3[N+](=O)[O-])o2)nc(N2CCOCC2)n1", "lipid storage change, negative = inhibition": "inconclusive: 17.5%"}, {"compound": "COc1ccc2c(c1OC)C(=O)N(c1ccccn1)C2", "lipid storage change, negative = inhibition": "inconclusive: -18.3%"}, {"compound": "Cc1nc2c(C)cccc2cc1C(=O)N/N=C/c1ccc(O)cc1", "Potency": "inconclusive: 18.4 µM [rising, single point]"}, {"compound": "N#CCC(=O)NNC(=S)Nc1ccccc1C(F)(F)F", "Potency": "inconclusive: 35.5 µM [falling, partial curve, poor fit]"}, {"compound": "CC1CCCCN1CCNC(=O)C1CCN(S(=O)(=O)c2cccc3nsnc23)CC1", "note": "(stereo unspecified)", "lipid storage change, negative = inhibition": "inconclusive: 44%"}, {"compound": "CCCn1c2ccccc2c2cn[nH]c(=O)c21", "lipid storage change, negative = inhibition": "inconclusive: 15.6%"}, {"compound": "Cn1c(=O)c2c(nc(Oc3ccc(-c4ccccc4)cc3)n2C)n(C)c1=O", "Potency": "inconclusive: 6.51 µM [falling, partial curve]"}, {"compound": "CN(CCOc1ccccc1)CC(=O)Nc1ccc(Br)cc1F", "lipid storage change, negative = inhibition": "inconclusive: -156%"}, {"compound": "CCOC(=O)Cc1nn(C)c(=O)c2ccccc12", "Potency": "inconclusive: 29.1 µM [activator, single point]"}, {"compound": "COc1ccc(-c2ccc(C#N)c(SCC(=O)NCc3ccco3)n2)cc1OC", "lipid storage change, negative = inhibition": "inconclusive: -26.2%"}, {"compound": "O=C(CC1SCCNC1=O)Nc1cccc(Cl)c1", "note": "(stereo unspecified)", "Potency": "inconclusive: 9.2 µM [falling, partial curve, poor fit]"}, {"compound": "COc1ccc(OC)c(CN2CCN(C(=O)c3ccco3)CC2)c1", "Potency": "inconclusive: 29.1 µM [activator, single point]"}, {"compound": "C=CCNC(=O)c1ccccc1NS(=O)(=O)c1ccccc1", "Potency": "inconclusive: 5.8 µM [activator, partial curve]"}, {"compound": "Cc1[nH]cnc1C(=O)N/N=C/c1c(Cl)cccc1Cl", "lipid storage change, negative = inhibition": "inconclusive: 18.2%"}, {"compound": "COc1cc(/C=N/NC(=O)/C(=C\\c2ccc([N+](=O)[O-])cc2)NC(=O)c2ccccc2)cc(OC)c1O", "lipid storage change, negative = inhibition": "inconclusive: 5.96%"}, {"compound": "Cc1ccc2c(c1)NC(=O)C(CC(=O)NCCCN1CCN(c3cc(C)ccc3C)CC1)O2", "note": "(stereo unspecified)", "lipid storage change, negative = inhibition": "inconclusive: 12.2%"}, {"compound": "COc1ccc(Cl)cc1NC(=O)NC(C)C", "Potency": "inconclusive: 2.91 µM [falling, partial curve, poor fit]"}, {"compound": "COc1cc(CN2CCC(C(=O)N3CCC(C)CC3)CC2)cc(Br)c1O", "lipid storage change, negative = inhibition": "inconclusive: 3.57%"}, {"compound": "CC1(C)CC(=O)C(CC(=O)N2CCC(Cc3ccccc3)CC2)C(=O)C1", "Potency": "inconclusive: 1.16 µM [falling, full curve]"}]}]}
